# Reference: US7585637B2, “Estrogen related receptor, ERRα, a regulator of bone formation” (priority 1999, dated 2009)
# At least one compound was matched to its structure with a doubt left.
# Test system: ERRα mRNA
# Assay: ERRα mRNA expression (Northern blot) in RC cells treated with hormones or growth factors
# Format: cell-based, rat
# Conditions: PGE2 10^−9 M, Dex
# Method: Cells were enzymatically isolated from the calvaria of 21 d Wistar rat fetuses by sequential digestion with collagenase as described previously (Bellows, 1986). Cells obtained from the last four of the five digestion steps (populations II-V) were pooled and plated in T-75 flasks in α-MEM containing 15% heat-inactivated FBS (Flow Laboratories, McLean, Va.) and antibiotics comprising […] penicillin G (Sigma Chemical Co., St. Louis, Mo.), […] gentamycin (Sigma), and […] fungizone (Flow Laboratories). After 24 h incubation, attached cells were washed with PBS to remove nonviable cells and other debris, and then collected by trypsinization using 0.01% trypsin in citrate saline. Aliquots were counted with a Coulter Counter (Coulter Electronics, Hialeah Fla.), and the remaining cells were resuspended in the standard medium described above. The resuspended cells were plated into 100 mm tissue culture dishes at 10^5 cells/dish, into 35 mm tissue culture dishes at 2×10^4/dish and in 24 wells plates at 10^4 cells/well. […] Medium was changed every 2 days. All dishes were incubated at 37° C. in a humidified atmosphere in a 95% air/5% CO2 incubator.
# Total RNA was extracted with guanidine from RC cells at different times of the culture corresponding to different stages of proliferation, differentiation and bone nodule formation (Current Protocols in Molecular Biology, vol. 1, 1996). […]
smiles,measurement,value
"C[C@@H]1C[C@H]2[C@@H]3CCC4=CC(=O)C=C[C@]4(C)[C@@]3(F)[C@@H](O)C[C@]2(C)[C@@]1(O)C(=O)CO [Dex, dexamethasone]",effect on ERRα expression,Neither PGE2 nor Dex had any significant effect
